Test results published in the supplement of paper PMC12823440, “Inhibitors supercharge kinase turnover through native proteolytic circuits” (Nature, 2025).
Some of the results follow. Hit calls seldom repeat between salt and free forms of one compound.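 In K562 cells expressing nanoluciferase-fused kinases, luminescence was recorded at 4 h intervals between 2 and 18 h, normalized as percent of control with DMSO at 100% and a positive control at 0%. A significant (2 sigma) signal drop marks a time point as decreased. The authors' rule for a hit is not shown and takes in more than the number of time points.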

By UniProt entry, the sequences of proteins in these tests, tags left out. Where a name states a change or a piece, a line headed by the entry shows the natural chain unless it says otherwise.
UniProt Q9Y616: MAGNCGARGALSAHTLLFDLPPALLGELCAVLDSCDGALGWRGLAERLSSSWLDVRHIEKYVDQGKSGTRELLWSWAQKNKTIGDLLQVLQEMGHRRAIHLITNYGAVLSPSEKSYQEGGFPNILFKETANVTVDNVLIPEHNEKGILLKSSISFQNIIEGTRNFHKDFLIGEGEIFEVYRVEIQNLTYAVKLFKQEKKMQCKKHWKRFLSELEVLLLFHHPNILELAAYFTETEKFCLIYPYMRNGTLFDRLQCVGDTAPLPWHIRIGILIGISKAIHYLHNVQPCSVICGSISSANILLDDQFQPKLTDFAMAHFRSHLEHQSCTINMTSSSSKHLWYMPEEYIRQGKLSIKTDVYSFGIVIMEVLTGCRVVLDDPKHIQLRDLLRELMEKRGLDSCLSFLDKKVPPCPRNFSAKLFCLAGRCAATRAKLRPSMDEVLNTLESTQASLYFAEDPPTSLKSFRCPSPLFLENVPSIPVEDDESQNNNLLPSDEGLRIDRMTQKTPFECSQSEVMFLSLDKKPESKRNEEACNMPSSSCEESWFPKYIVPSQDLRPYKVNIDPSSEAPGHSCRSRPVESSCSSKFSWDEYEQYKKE
UniProt P23458: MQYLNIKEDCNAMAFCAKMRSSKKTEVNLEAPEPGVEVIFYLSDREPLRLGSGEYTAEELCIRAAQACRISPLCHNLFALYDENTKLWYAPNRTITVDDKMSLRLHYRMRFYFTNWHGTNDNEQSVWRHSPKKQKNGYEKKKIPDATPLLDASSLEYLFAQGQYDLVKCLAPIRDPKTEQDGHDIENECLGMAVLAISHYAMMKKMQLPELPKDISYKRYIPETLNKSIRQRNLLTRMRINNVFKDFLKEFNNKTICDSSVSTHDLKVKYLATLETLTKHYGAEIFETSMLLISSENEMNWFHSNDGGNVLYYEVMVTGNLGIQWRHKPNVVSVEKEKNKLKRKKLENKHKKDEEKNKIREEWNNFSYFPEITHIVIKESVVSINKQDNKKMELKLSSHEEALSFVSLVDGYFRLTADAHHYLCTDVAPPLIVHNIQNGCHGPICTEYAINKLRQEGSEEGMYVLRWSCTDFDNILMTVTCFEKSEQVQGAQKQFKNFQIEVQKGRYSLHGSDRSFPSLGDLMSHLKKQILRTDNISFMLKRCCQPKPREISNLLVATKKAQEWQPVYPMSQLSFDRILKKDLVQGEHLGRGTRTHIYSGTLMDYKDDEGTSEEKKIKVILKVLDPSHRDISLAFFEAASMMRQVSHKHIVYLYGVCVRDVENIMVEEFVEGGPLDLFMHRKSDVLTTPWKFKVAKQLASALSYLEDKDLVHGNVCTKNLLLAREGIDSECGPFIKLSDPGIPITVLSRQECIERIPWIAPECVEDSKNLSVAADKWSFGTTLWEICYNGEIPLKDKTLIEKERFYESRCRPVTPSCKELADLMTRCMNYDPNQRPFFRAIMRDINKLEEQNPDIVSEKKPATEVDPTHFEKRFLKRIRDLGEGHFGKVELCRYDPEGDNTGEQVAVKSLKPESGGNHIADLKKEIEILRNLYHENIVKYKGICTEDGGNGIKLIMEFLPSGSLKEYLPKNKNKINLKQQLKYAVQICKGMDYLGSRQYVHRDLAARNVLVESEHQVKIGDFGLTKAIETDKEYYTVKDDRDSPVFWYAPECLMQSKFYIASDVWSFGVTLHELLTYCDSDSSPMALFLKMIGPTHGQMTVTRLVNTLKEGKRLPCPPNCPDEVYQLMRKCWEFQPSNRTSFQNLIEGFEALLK
UniProt P06239: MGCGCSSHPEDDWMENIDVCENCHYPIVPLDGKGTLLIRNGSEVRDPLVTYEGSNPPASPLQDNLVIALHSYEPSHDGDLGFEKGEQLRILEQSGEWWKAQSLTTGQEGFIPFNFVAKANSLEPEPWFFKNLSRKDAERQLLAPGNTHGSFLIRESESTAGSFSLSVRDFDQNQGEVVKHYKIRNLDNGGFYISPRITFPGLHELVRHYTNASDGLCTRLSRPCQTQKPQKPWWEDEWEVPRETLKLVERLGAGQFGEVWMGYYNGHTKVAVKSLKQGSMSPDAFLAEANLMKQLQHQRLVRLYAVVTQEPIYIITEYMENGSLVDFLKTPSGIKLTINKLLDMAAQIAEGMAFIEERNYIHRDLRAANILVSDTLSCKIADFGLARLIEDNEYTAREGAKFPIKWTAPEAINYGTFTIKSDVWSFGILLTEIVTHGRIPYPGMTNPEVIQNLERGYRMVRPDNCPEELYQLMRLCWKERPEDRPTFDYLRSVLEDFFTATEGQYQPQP
UniProt P53667: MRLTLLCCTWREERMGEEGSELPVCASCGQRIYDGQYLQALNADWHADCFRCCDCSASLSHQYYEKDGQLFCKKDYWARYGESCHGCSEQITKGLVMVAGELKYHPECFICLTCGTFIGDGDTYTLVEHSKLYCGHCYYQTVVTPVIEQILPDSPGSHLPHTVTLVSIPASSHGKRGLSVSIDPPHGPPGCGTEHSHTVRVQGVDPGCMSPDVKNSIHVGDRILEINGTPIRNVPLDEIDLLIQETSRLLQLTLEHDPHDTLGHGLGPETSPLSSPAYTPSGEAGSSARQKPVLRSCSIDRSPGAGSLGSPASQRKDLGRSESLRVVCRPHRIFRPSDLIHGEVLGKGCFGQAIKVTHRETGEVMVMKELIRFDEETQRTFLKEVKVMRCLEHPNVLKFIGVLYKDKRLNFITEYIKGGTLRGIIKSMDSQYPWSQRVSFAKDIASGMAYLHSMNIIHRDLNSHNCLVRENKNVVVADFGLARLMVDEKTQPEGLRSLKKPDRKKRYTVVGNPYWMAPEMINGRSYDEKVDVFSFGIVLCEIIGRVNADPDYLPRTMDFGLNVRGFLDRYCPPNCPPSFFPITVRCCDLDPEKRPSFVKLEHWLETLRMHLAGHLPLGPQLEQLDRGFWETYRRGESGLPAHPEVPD
UniProt P53671: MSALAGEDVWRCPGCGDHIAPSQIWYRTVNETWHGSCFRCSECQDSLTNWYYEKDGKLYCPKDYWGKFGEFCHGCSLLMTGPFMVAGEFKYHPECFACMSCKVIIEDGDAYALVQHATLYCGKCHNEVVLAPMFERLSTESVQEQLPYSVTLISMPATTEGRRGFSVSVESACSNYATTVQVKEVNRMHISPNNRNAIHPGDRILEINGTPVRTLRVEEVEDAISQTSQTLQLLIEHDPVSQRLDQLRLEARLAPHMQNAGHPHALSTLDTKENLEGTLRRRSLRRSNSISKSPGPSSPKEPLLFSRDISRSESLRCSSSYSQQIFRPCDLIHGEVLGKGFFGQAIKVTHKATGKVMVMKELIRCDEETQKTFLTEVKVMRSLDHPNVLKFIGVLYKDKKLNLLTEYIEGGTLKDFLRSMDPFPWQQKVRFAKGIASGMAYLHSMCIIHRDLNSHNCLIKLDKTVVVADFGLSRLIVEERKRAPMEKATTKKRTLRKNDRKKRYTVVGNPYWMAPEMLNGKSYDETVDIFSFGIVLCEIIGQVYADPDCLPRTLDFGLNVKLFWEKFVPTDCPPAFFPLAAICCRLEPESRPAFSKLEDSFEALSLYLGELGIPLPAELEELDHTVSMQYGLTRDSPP
UniProt Q8IWU2: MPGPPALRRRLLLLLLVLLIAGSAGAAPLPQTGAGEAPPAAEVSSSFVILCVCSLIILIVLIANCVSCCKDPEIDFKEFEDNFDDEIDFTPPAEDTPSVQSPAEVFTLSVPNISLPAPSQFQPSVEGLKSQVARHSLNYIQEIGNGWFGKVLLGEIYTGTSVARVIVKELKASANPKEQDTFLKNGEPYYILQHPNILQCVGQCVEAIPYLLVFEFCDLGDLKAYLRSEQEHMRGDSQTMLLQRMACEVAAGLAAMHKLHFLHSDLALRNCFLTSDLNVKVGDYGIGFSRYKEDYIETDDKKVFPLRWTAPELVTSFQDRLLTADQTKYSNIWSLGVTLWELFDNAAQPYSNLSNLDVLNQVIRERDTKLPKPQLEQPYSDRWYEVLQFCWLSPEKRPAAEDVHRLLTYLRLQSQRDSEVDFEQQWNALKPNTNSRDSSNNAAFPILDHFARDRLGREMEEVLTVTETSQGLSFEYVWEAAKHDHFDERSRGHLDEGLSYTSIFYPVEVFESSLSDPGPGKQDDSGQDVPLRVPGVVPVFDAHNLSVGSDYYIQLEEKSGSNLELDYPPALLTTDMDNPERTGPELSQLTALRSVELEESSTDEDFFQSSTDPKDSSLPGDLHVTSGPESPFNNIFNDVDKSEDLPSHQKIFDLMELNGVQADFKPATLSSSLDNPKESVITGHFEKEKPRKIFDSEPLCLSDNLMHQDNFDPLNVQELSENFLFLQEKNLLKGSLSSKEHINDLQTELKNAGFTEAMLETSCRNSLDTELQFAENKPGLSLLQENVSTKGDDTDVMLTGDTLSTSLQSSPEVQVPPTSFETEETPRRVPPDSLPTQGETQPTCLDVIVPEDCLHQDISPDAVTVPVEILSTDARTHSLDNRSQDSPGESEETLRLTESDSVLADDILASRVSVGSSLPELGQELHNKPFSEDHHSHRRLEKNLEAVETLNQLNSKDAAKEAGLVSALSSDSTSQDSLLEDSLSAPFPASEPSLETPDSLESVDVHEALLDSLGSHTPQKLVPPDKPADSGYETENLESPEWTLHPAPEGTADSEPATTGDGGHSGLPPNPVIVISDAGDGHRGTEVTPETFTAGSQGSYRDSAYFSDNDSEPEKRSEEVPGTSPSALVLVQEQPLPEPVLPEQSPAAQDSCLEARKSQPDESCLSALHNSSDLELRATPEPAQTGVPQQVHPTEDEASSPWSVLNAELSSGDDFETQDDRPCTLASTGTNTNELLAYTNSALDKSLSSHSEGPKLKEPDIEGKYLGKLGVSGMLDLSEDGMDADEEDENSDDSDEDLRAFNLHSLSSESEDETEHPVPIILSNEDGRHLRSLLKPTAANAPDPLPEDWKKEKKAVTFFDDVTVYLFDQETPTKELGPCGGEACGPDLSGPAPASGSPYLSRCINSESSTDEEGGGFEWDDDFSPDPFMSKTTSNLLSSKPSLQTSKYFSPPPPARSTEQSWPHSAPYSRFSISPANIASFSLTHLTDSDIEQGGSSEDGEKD
UniProt P07948: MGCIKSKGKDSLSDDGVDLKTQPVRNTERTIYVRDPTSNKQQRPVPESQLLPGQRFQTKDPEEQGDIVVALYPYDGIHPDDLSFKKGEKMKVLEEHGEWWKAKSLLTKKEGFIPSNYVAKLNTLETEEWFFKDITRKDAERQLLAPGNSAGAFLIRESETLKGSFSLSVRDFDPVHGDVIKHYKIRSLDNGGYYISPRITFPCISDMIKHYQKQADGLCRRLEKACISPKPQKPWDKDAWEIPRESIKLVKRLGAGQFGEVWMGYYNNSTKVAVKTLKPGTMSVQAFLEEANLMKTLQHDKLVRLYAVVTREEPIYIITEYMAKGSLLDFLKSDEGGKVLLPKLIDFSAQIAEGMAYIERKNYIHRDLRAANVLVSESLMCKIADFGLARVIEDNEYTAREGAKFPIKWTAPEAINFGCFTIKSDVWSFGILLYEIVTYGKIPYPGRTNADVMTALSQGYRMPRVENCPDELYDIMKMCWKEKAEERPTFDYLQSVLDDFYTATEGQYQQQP
UniProt Q12851: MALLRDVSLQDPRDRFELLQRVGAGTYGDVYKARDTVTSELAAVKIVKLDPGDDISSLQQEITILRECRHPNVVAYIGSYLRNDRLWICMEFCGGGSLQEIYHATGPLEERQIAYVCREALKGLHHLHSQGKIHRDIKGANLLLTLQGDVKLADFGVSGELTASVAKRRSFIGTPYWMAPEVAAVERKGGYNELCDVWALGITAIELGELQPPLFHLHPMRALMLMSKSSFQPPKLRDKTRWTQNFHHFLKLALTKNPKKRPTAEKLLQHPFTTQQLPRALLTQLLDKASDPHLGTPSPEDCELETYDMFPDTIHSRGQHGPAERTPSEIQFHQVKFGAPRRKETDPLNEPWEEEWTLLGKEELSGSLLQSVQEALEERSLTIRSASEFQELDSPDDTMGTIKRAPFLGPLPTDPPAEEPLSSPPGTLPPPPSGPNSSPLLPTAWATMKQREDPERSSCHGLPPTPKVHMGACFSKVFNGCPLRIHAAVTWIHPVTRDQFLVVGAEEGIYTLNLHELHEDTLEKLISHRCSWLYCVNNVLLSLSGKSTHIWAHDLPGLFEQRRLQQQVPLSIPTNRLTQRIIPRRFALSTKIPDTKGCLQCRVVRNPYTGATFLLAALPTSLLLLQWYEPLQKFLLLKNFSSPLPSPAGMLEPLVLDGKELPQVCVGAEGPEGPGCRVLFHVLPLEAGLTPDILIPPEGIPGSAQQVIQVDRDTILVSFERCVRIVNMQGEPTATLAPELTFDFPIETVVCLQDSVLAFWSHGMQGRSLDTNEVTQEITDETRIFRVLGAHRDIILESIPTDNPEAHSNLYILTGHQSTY

Legend:
Assay in all cases: kinase-Nluc reporter destabilization hit call (1 = scored as downregulated) (binary); higher = compound decreases kinase abundance
Details in all cases: K562; 2-18 h
IRAK3 = IRAK3 (UniProt Q9Y616)
JAK1 = JAK1 (UniProt P23458)
LCK = LCK (UniProt P06239)
LIMK1 = LIMK1 (UniProt P53667)
LIMK2 = LIMK2 (UniProt P53671)
LMTK2 = LMTK2 (UniProt Q8IWU2)
LYN = LYN (UniProt P07948)
MAP2K1 = MAP2K1 (UniProt Q02750)
MAP2K2 = MAP2K2 (UniProt P36507)
MAP4K2 = MAP4K2 (UniProt Q12851)

Measured: kinase-Nluc reporter destabilization hit call

COc1cc(-c2oc3cc(O)cc(O)c3c(=O)c2O)ccc1O [Isorhamnetin] (10 µM)
inactive: IRAK3 = 0 | JAK1 = 0 | LCK 0 | LIMK1 = 0 | LIMK2 = 0 | LMTK2 = 0 | LYN 0 | MAP2K1 = 0 | MAP2K2 = 0 | MAP4K2 = 0

NC(=O)c1cnc(-c2ccc(C3(N)CCC3)cc2)c(-c2ccccc2)c1 (10 µM)
inactive: IRAK3 = 0 | JAK1 = 0 | LCK 0 | LIMK1 = 0 | LIMK2 = 0 | LMTK2 = 0 | LYN 0 | MAP2K1 = 0 | MAP2K2 = 0 | MAP4K2 = 0

Cc1cccc(-c2[nH]ncc2-c2ccnc3ccccc23)n1 (10 µM)
inactive: IRAK3 = 0 | JAK1 = 0 | LCK 0 | LIMK1 = 0 | LIMK2 = 0 | LMTK2 = 0 | LYN 0 | MAP2K1 = 0 | MAP2K2 = 0 | MAP4K2 = 0

Fc1ccc2[nH]ccc2c1-c1nc(N2CCOCC2)c2sc(CN3CCN(CC4CC4)CC3)cc2n1 (10 µM)
inactive: IRAK3 = 0 | JAK1 = 0 | LCK 0 | LIMK1 = 0 | LIMK2 = 0 | LMTK2 = 0 | LYN 0 | MAP2K1 = 0 | MAP2K2 = 0 | MAP4K2 = 0

COc1ccc2c3n(c(=NC(=O)c4cccnc4)nc2c1OC)CCN3 (2 µM)
inactive: IRAK3 = 0 | JAK1 = 0 | LCK 0 | LIMK1 = 0 | LIMK2 = 0 | LMTK2 = 0 | LYN 0 | MAP2K1 = 0 | MAP2K2 = 0 | MAP4K2 = 0

O=C(ON=C1c2ccccc2-c2nc3ccccc3nc21)c1ccco1 (2.5 µM)
inactive: IRAK3 = 0 | JAK1 = 0 | LCK 0 | LIMK1 = 0 | LIMK2 = 0 | LMTK2 = 0 | LYN 0 | MAP2K1 = 0 | MAP2K2 = 0 | MAP4K2 = 0

C#Cc1cccc(Nc2ncnc3cc(OC)c(NC(=O)N4C[C@H]5CCN(C)[C@H]5C4)cc23)c1 [Theliatinib] (10 µM)
inactive: IRAK3 = 0 | JAK1 = 0 | LCK 0 | LIMK1 = 0 | LIMK2 = 0 | LMTK2 = 0 | LYN 0 | MAP2K1 = 0 | MAP2K2 = 0 | MAP4K2 = 0

Cc1ccc(C)c(OCCn2cc(C(=O)O)c3ccccc32)c1 (10 µM)
inactive: IRAK3 = 0 | JAK1 = 0 | LCK 0 | LIMK1 = 0 | LIMK2 = 0 | LMTK2 = 0 | LYN 0 | MAP2K1 = 0 | MAP2K2 = 0 | MAP4K2 = 0

COC(=O)/C=C/c1ccccc1 [Methyl cinnamate] (10 µM)
inactive: IRAK3 = 0 | JAK1 = 0 | LCK 0 | LIMK1 = 0 | LIMK2 = 0 | LMTK2 = 0 | LYN 0 | MAP2K1 = 0 | MAP2K2 = 0 | MAP4K2 = 0

CNC(=O)c1ccc2c(c1)ncn2-c1ccc(CC(=O)OC(C)(C)C)cc1 (10 µM)
inactive: IRAK3 = 0 | JAK1 = 0 | LCK 0 | LIMK1 = 0 | LIMK2 = 0 | LMTK2 = 0 | LYN 0 | MAP2K1 = 0 | MAP2K2 = 0 | MAP4K2 = 0

O=C(Nc1cc(Cl)cc2c1[nH]c1cnccc12)c1cccnc1 (10 µM)
inactive: IRAK3 = 0 | JAK1 = 0 | LCK 0 | LIMK1 = 0 | LIMK2 = 0 | LMTK2 = 0 | LYN 0 | MAP2K1 = 0 | MAP2K2 = 0 | MAP4K2 = 0

O=C(c1cccc(Cl)c1F)N1CCN(Cc2cccc(Nc3nccs3)n2)CC1 (2.5 µM)
inactive: IRAK3 = 0 | JAK1 = 0 | LCK 0 | LIMK1 = 0 | LIMK2 = 0 | LMTK2 = 0 | LYN 0 | MAP2K1 = 0 | MAP2K2 = 0 | MAP4K2 = 0

Cn1c(=O)c2c(nc(S(C)(=O)=O)n2C)n(CC#Cc2cccc(O)c2)c1=O (2.5 µM)
inactive: IRAK3 = 0 | JAK1 = 0 | LCK 0 | LIMK1 = 0 | LIMK2 = 0 | LMTK2 = 0 | LYN 0 | MAP2K1 = 0 | MAP2K2 = 0 | MAP4K2 = 0

COc1ccc2c(Oc3ccc4c(C(=O)Nc5ccccc5N)cccc4c3)ccnc2c1 [Chiauranib] (10 µM)
inactive: IRAK3 = 0 | JAK1 = 0 | LCK 0 | LIMK1 = 0 | LIMK2 = 0 | LMTK2 = 0 | LYN 0 | MAP2K1 = 0 | MAP2K2 = 0 | MAP4K2 = 0

NS(=O)(=O)c1ccc(Nc2nc(-c3cccc(-c4ccccc4)c3)c3[nH]cnc3n2)cc1 (10 µM)
inactive: IRAK3 = 0 | JAK1 = 0 | LCK 0 | LIMK1 = 0 | LIMK2 = 0 | LMTK2 = 0 | LYN 0 | MAP2K1 = 0 | MAP2K2 = 0 | MAP4K2 = 0
